This passage reports binding results from paper PMC12815461 (2026).

The chains behind the UniProt entries cited, without tags or fusion partners. Where a name states a change or a piece, a line headed by the entry shows the natural chain unless it says otherwise.
UniProt Q12888: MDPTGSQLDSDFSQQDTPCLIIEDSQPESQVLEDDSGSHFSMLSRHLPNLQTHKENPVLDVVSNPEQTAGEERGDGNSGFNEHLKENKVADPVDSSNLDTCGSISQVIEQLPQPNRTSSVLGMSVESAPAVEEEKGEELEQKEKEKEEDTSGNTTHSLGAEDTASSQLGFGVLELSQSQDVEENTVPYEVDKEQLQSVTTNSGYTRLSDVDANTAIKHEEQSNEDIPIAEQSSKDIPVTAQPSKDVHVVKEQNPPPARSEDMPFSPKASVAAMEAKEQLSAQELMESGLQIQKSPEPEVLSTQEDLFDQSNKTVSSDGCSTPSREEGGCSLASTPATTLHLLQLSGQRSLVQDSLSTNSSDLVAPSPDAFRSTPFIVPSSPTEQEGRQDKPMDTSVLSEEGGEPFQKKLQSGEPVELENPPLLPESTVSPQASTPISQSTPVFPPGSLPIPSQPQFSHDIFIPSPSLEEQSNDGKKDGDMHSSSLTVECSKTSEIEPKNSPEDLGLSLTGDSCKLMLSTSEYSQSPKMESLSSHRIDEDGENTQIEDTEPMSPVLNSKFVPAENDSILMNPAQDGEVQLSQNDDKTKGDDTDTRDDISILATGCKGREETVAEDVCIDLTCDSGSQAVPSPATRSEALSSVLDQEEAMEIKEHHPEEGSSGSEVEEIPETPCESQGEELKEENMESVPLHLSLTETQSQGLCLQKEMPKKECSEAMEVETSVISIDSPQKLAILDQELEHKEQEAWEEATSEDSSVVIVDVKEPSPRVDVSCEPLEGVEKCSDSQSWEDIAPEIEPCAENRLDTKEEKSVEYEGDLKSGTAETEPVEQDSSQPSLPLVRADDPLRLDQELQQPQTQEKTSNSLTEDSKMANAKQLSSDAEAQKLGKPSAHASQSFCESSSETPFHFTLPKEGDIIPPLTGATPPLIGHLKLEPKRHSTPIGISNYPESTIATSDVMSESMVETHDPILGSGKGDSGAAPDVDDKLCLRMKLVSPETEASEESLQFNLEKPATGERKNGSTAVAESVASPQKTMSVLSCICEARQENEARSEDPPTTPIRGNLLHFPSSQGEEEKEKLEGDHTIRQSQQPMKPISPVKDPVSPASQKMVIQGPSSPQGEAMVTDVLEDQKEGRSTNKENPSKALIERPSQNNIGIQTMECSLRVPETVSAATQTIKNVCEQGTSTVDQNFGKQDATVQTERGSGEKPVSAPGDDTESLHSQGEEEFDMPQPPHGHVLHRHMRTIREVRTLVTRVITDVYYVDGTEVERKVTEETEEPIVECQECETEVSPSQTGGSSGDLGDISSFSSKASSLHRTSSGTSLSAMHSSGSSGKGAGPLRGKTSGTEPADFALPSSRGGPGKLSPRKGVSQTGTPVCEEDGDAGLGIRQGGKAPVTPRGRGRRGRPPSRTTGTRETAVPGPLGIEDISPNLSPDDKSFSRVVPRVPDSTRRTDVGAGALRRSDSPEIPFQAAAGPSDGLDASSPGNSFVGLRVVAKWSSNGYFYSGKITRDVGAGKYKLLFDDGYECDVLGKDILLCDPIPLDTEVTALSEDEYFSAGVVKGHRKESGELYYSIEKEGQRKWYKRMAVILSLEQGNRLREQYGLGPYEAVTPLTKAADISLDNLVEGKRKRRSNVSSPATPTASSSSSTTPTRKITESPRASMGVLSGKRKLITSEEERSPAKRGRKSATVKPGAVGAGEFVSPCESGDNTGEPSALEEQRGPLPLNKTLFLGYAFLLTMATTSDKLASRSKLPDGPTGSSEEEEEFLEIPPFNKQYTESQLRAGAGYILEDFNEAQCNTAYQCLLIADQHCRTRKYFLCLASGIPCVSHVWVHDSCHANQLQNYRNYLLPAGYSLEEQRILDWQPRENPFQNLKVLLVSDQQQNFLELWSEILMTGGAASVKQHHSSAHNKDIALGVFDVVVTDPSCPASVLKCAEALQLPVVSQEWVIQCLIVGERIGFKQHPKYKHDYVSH

Results are given in words; binding and its absence hold for the method and conditions named. In cells and extracts the contact can be indirect.

The assay addresses FLAG-53BP1 ΔMFF (human) (UniProt Q12888). Description: co-IP; FLAG-53BP1 WT, ΔMFF or IEDI_AAAA transfected into HEK293T, MLN4924 for 3 hr; 53BP1 immunoprecipitated (FLAG) and immunoblotted. (In general: Immunoblotting shows a protein as a band on a membrane.)

B1: GMCL1, endogenous in HEK293T (as part of CRL3^GMCL1) (protein, UniProt Q96IK5 1-515)
chain: MGSLSSRVLRQPRPALAQQAQGARAGGSARRPDTGDDAAGHGFCYCAGSHKRKRSSGSFCYCHPDSETDEDEEEGDEQQRLLNTPRRKKLKSTSKYIYQTLFLNGENSDIKICALGEEWSLHKIYLCQSGYFSSMFSGSWKESSMNIIELEIPDQNIDVEALQVAFGSLYRDDVLIKPSRVVAILAAACLLQLDGLIQQCGETMKETVNVKTVCGYYTSAGTYGLDSVKKKCLEWLLNNLMTHQNVELFKELSINVMKQLIGSSNLFVMQVEMDIYTALKKWMFLQLVPSWNGSLKQLLTETDVWFSKQRKDFEGMAFLETEQGKPFVSVFRHLRLQYIISDLASARIIEQDAVVPSEWLSSVYKQQWFAMLRAEQDSEVGPQEINKEELEGNSMRCGRKLAKDGEYCWRWTGFNFGFDLLVTYTNRYIIFKRNTLNQPCSGSVSLQPRRSIAFRLRLASFDSSGKLICSRTTGYQILTLEKDQEQVVMNLDSRLLIFPLYICCNFLYISPEKKN
Turning to B1, the binding result is on record as “no binding”.
